# Test results reported in PubChem BioAssay AID2685 (National Center for Advancing Translational Sciences (NCATS), 2010).
# Screen size: about 320,000 compounds; about 2,100 (0.66%) were called active. The shares of active, inactive and inconclusive entries below differ from those in the screen. Calls come from the whole dose curve; as a rule, active = well fitted inhibition curve with a large enough effect in the signal ratio, with a control signal flat (not every such curve was filed as active); inconclusive = small, poorly fitted or top-dose-only effect, or effect the other way, or a change in a side signal; inactive = flat fitted curve, though single readings scatter; the % refers to the signal ratio. Potencies of inconclusive entries are doubtful fits and often do not repeat.
# Experiment: qHTS Assay for Lipid Storage Modulators in Drosophila S3 Cells
# Settings: BODIPY lipid droplet fluorescence, 18-24 h, cells fed with added oleic acid; lipid storage change, negative = inhibition: at 46.1 µM (top of the series) unless noted
# How it was run: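 Laser-scanning cytometry quantifies lipid droplet accumulation (500–530 nm total intensity; droplet/cell object ratio) in oleic acid-fed (400 uM added) Drosophila S3 cells treated with a concentration series. 20 uM Triacsin C defined 100% inhibition.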
# % is set by controls: 0 for no effect and ±100 for the full control effect; potency is the fitted concentration of half-maximal effect.
SMILES,"lipid storage change, negative = inhibition",Potency
O=C(COc1ccc2ccccc2c1Br)Nc1ncn[nH]1,inconclusive: 9.66%,
O=C(CSCC(=O)NC1CCCC1)Nc1ccccc1,,"inconclusive: 29.1 µM [activator, single point]"
O=C(NCc1ccncc1)c1cccc(S(=O)(=O)NCc2ccccc2)c1,,"inconclusive: 0.651 µM [activator, full curve]"
CCCOc1ccccc1NC(=O)c1c(-c2ccccc2)noc1C,inconclusive: 17.8%,
COc1cccc(OC)c1C(=O)Nc1ccc(N2CCN(C(=O)c3cccs3)CC2)cc1,,"inconclusive: 1.84 µM [activator, partial curve]"
CCCCCCC(=O)Nc1nc(C)c(-c2csc(Nc3ccc(Cl)cc3)n2)s1,inactive: -12%,
COc1ccccc1C(=O)Nc1ccc2c(c1)CCCN2C(=O)c1ccccc1,,"inconclusive: 5.17 µM [falling, partial curve, poor fit]"
O=C(NCCCN1CCc2ccccc2C1)C1CCN(c2nnc(-n3cccc3)s2)CC1,,"inconclusive: 29.1 µM [activator, single point]"
c1coc(CN=C2NC(=NCc3ccco3)c3ccccc32)c1,,"inconclusive: 29.1 µM [activator, single point]"
CCCn1nc(C(=O)N2CCc3ccccc3C2)c2ccccc2c1=O,inactive: 4.01%,
COc1ccc2[nH]c3c(c2c1)CCN1C(=O)N([C@@H](C)C(=O)NC2CC2)C(=O)[C@]31C,,"inconclusive: 29.1 µM [falling, single point]"
COC(=O)c1cc2ccsc2n1CC(=O)N(C)c1ccccc1,inconclusive: 41.7%,
COC(=O)c1ccc(S(=O)(=O)N2Cc3ccccc3C2)cc1,inconclusive: -0.837%,
C=CCn1c(CNC(=O)c2ccco2)nnc1SCC(=O)c1ccc(F)cc1,inconclusive: 31.2%,
Cc1ccc(CNC(=O)/C=C/c2ccc(S(=O)(=O)N3CCOCC3)cc2)cc1,inconclusive: 8.21%,
COc1ccc(CC(=O)O/N=C(\N)c2ccccn2)cc1OC,,"inconclusive: 29.1 µM [activator, single point]"
O=C(NC1CC1)C1CCN(C2CCN(C(=O)c3c(F)cccc3Cl)CC2)CC1,,"inconclusive: 0.184 µM [falling, full curve, poor fit]"
CCc1nn2c(=O)cc(CSc3nc(C)cc(=O)[nH]3)nc2s1,inconclusive: -79.4%,
Cc1noc(C(=O)Nc2cccnc2)c1Cl,,"inconclusive: 23.1 µM [activator, single point]"
Cc1c(Cl)cccc1NC(=O)c1cccnc1,,"inconclusive: 29.1 µM [activator, single point]"
CCc1c(C)c2cc(Cl)c(O)c(CN3CCCC3)c2oc1=O,inconclusive: 41.9%,
C=CCn1c(SCC(=O)N2CCCCC2)nc(O)cc1=O,,"inconclusive: 29.1 µM [falling, single point]"
O=C(COc1ccc(S(=O)(=O)NCc2ccccc2)cc1Cl)NCc1ccccn1,inconclusive: 71.1%,
COC(=O)c1c(-c2ccco2)csc1NC(=O)C1CC=CCC1C(=O)O (stereo unspecified),inconclusive: -1.74%,
CC(C)Cc1nc2oc3c(NCC4CCCO4)ncnc3c2c2c1CCC2 (stereo unspecified),inconclusive: 14.3%,
Cc1ccc(S(=O)(=O)CCC(=O)OCC(=O)NNC(=O)c2ccc([N+](=O)[O-])cc2)cc1,inconclusive: 19%,

SMILES,"lipid storage change, negative = inhibition",Potency
Cc1ccc(C(=O)Nc2ccncc2)cc1[N+](=O)[O-],inconclusive: -44.4%,
Cc1sc(NC(=O)c2oc3ccccc3c2C)c(C#N)c1C,inconclusive: -3.56%,
CCn1c(CSc2nc3ccccc3s2)nnc1SCC(=O)NCC(=O)OC,,active: 25.9 µM
Cc1ccc(CN(C(=O)Cc2cccs2)C(C(=O)NC2CCCC2)c2ccncc2)cc1 (stereo unspecified),inconclusive: 4.33%,
CCN1CCc2nc3ccccc3c(C(=O)Nc3ccc(C#N)cc3)c2C1,inconclusive: -6.39%,
CCn1cc(Cl)c(C(=O)Nc2cc(C(=O)OC)cc(C(=O)OC)c2)n1,inconclusive: 25.6% [at 9.22 µM],
COc1ccc(S(=O)(=O)N(C)c2ccc(C(=O)N3CCN(c4ccccc4)CC3)cc2)cc1OC,,"inconclusive: 29.1 µM [falling, single point]"
NS(=O)(=O)c1ccc(NCc2cc(Cl)ccc2OCc2ccccc2F)cc1,inconclusive: 280%,
Cc1nnc(SCC(=O)Nc2ccc(F)cc2F)n(N)c1=O,inconclusive: 47%,
CC(C)c1cc(C(F)(F)F)n2nc(C(=O)Nc3ccc4c(c3)OCO4)cc2n1,,"inconclusive: 16.4 µM [activator, single point]"
CCN(CC)c1ccc(/C=N\NC(=O)c2cccc3cc[nH]c23)cc1,inconclusive: 15.9%,
CCN(CC(=O)Nc1ccc2c(c1)OCCO2)C(=O)COc1ccc(C)cc1,inconclusive: 2.9%,
Cc1nc(-c2ccccc2)sc1-c1ccn[nH]1,inconclusive: 1.34%,
CCOC(=O)C1=C(C)NC(=S)NC1c1ccc(OC(=O)c2ccco2)cc1 (stereo unspecified),inconclusive: 3.7%,
Cn1cc(/C=C/c2cc[n+](C)cc2)c2cc(Cl)ccc21,,"inconclusive: 29.1 µM [falling, single point]"
CCOc1ccc2nc(-c3cc(NC(C)=O)ccc3O)sc2c1,inconclusive: 17.4%,
Cc1c(NC(=O)Nc2ccc(F)cc2F)c(=O)n(-c2ccccc2)n1C,,"inconclusive: 0.58 µM [activator, single point]"
Fc1ccc(N/N=C/c2ccc(N3CCOCC3)cc2)c(F)c1,inconclusive: 20.5%,
Cc1ccc(C(=O)CCS(=O)(=O)c2ccc(Br)cc2)cc1,inconclusive: 4.23%,
Cc1cc(C)n(-c2nc3nonc3nc2Nc2cccc(C)c2C)n1,inconclusive: -17%,
Cc1sc2nc(CSc3ccc([N+](=O)[O-])c(C(F)(F)F)c3)[nH]c(=O)c2c1C,inconclusive: -21.2%,
COc1ccc(C2CC(=O)N3CN(c4ccc(C)c(Cl)c4)CSC3=C2C#N)cc1 (stereo unspecified),inconclusive: 64.6%,
CCOC(=O)N1CCC(NC(=O)Cn2ncc3ccccc32)CC1,,"inconclusive: 29.1 µM [falling, single point]"
Cc1ccc(C2CC(c3ccco3)=NN2S(C)(=O)=O)cc1 (stereo unspecified),,"inconclusive: 16.4 µM [falling, single point]"
COc1ccc(CNC(=O)c2c(C)cc(=O)oc2C)cc1OC,inconclusive: -11.5%,
Cc1ccc(C)c(NC(=S)N2CCN(c3ccccn3)CC2)c1,,"inconclusive: 29.1 µM [activator, single point]"

# Retrieved one by one from above:
SMILES,"lipid storage change, negative = inhibition",Potency
CCN(CC)c1ccc(/C=N\NC(=O)c2cccc3cc[nH]c23)cc1,inconclusive: 15.9%,
Cc1ccc(C(=O)Nc2ccncc2)cc1[N+](=O)[O-],inconclusive: -44.4%,
COc1ccc(C2CC(=O)N3CN(c4ccc(C)c(Cl)c4)CSC3=C2C#N)cc1 (stereo unspecified),inconclusive: 64.6%,
Cc1cc(C)n(-c2nc3nonc3nc2Nc2cccc(C)c2C)n1,inconclusive: -17%,
Cc1nnc(SCC(=O)Nc2ccc(F)cc2F)n(N)c1=O,inconclusive: 47%,
Cc1ccc(C)c(NC(=S)N2CCN(c3ccccn3)CC2)c1,,"inconclusive: 29.1 µM [activator, single point]"

# Next part

SMILES,"lipid storage change, negative = inhibition",Potency
Cc1cc(C)cc(OCC(O)Cn2nc(C)cc2C)c1 (stereo unspecified),inconclusive: 35.6%,
NC(=O)NC(=O)CN1C(=O)NC(c2ccccc2)(c2ccccc2)C1=O,,"inconclusive: 29.1 µM [activator, single point]"
CC(Sc1ncnc2c1cnn2-c1ccccc1)C(=O)Nc1ccc(N2CCOCC2)cc1 (stereo unspecified),,"inconclusive: 0.146 µM [activator, full curve, poor fit]"
COc1ccc(NC(C)=O)cc1NC(=O)CSc1nnc(-c2ccccc2)n1N,,"inconclusive: 0.116 µM [falling, full curve, poor fit]"
CS(=O)(=O)NCCSCc1c(Cl)cccc1Cl,inconclusive: 31.7%,
Cc1ccccc1CSCC(=O)N1CCN(c2ccccc2)CC1,,"inconclusive: 1.64 µM [activator, partial curve, poor fit]"
COc1ccc(CNC(=O)COc2cc3c(c4oc(=O)cc(C)c24)CCC(C)(C)O3)cc1OC,,"inconclusive: 32.6 µM [falling, partial curve, poor fit]"
O=C(Nc1ccccc1N1CCCCC1)c1cccc(OC(F)F)c1,inconclusive: -142%,
COc1ccc(N2CCN(CC(O)COc3ccccc3[N+](=O)[O-])CC2)cc1 (stereo unspecified),inconclusive: 35.2%,
CC12CC3CC(C)(C1)CC(CN1CCOCC1)(C3)C2,inconclusive: 6.56%,
Cc1cccc(C(=O)Nc2nccs2)c1[N+](=O)[O-],inconclusive: 39.3%,
COc1ccc(C(=O)N/C(=C\c2cccc3ccccc23)C(=O)NCCc2c[nH]c3ccccc23)cc1OC,,"inconclusive: 11.6 µM [falling, partial curve]"
CCN1CCN(c2nc(-c3ccccn3)nc3ccccc23)CC1,inconclusive: -0.673%,
Cc1nc2nc(-c3cccnc3)[nH]n2c(=O)c1C,,"inconclusive: 32.6 µM [falling, single point]"
CCC(=O)NC(c1cccs1)c1cc(Cl)c2ccccc2c1O (stereo unspecified),inconclusive: -3.12%,
O=C(OCc1ccccc1F)c1cc2ccccc2cc1O,inconclusive: 62.5%,
CC1(C)C2CCC1(C)C(OCCNCCOC(=O)Nc1ccccc1)C2 (stereo unspecified),inconclusive: -89.7%,
O=C(COC(=O)c1ccccc1NS(=O)(=O)c1cc([N+](=O)[O-])ccc1Cl)c1ccccc1,inconclusive: -70.9%,
N#CC1=C(N)OC2=C(C(=O)CC(c3ccccc3)C2)C1c1cccnc1 (stereo unspecified),inconclusive: -16.9%,
Cc1nnc(NC(=O)c2cc(-c3ccco3)nc3ccccc23)s1,inconclusive: -52.7% [at 0.0737 µM],
CCc1ccc(NC(=O)CSc2ccc(-c3cccnc3)nn2)cc1,inconclusive: 10.2%,
N/C(=N\OC(=O)c1ccc(Cl)cc1Cl)c1cccnc1,inconclusive: 10.2%,
CCC(NC(=O)Nc1ccc(O)cc1)(C(F)(F)F)C(F)(F)F,,"inconclusive: 2.59 µM [falling, full curve]"
COc1ccc(NC(=S)Nc2cccnc2)c(OC)c1,inconclusive: 21.4%,
